Data on one molecule can be found in patent US20190345225A1 (KEROS THERAPEUTICS, published 2019).

Results are given in words; binding and its absence hold for the method and conditions named. Some binding calls cover weakened binding; strength is not graded here. Where a sequence is shown, tags or fusion partners need not be part of it.

For this assay, the target named is T1, growth differentiation factor 11 (GDF11) (UniProt O95390).
T1 sequence (looked up): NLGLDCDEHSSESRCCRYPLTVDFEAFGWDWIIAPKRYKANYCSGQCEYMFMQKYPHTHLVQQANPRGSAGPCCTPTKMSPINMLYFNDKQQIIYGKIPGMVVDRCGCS
The assay can be described thus: SPR, Biacore 3000; receptor fusion captured on chip, ligand in solution.

B1: ActRIIa/b+ (SEQ ID NO: 150) fused to the N-terminus of hFc through a GGG linker (Fc fusion)
chain: GAILGRSETQECLFYNANWELERTNQTGVERCEGEKDKRLHCYATWRNISGSIEIVAKGCWLDDFNCYDRTDCVETEENPQVYFCCCEGNMCNEKFSYFPEMEVTQPTSGGG
notes: also called ActRIIab+ variant; not shown: human Fc (hFc)
In the case of B1, the binding entry was “binds”.
